The values below come from patent US7060678B2 (Dabur Research Foundation, priority 2003, dated 2006).

Some peptides are written in HELM: one residue between dots, names in brackets for other building blocks, links after the first $. A value given as a limit tells only on which side of the number the result lay.

One data set in a line: general procedure: Fmoc solid-phase peptide synthesis; Wang resin; DCC or DIPCDI/HOBt or HBTU/DIEA and PyBOP/DIEA. The conditions noted are these: whole synthesis.
Take PEPTIDE1{L.M.Y.[Saa4].Y.L.K}$$$$V2.0: the crude mass stood at 998 mg.

The substance PEPTIDE1{L.M.[Saa4].T.Y.L.K}$$$$V2.0 registered a crude mass of 264 mg.

Consider Leu-Met-Saa4-Tyr-Leu-Lys, for which the crude mass was determined as 825 mg.

Leu-Met-Tyr-Saa2-Thr-Tyr-Leu-Lys came in with a crude mass of 600 mg.

As for PEPTIDE1{M.[Saa1].Y.L}$$$$V2.0, the crude mass was found to be 302 mg and the isolated mass is 203 mg.

For the substance Met-Saa4-Tyr-Leu, the crude mass was found to be 209 mg and the isolated mass is on record as 86 mg.

Still in this data set, the particulars now being: whole synthesis, analytical HPLC.
Consider PEPTIDE1{M.[Saa1].Y.L}$$$$V2.0, for which the “final HPLC purity” value was over 95%.
